{
  "source": "PubChem BioAssay AID328",
  "about": "(DTP/NCI, 2004)",
  "system": "BDF1 mice, P388 leukemia ip, median survival T/C",
  "test": "NCI In Vivo Anticancer Drug Screen. Data for tumor model P388 Leukemia (intraperitoneal) in B6D2F1 (BDF1) mice",
  "settings": "T/C endpoint: median survival time, higher T/C = longer survival",
  "method_in_brief": "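T/C = treated-group survival ÷ vehicle-control survival; tumour transplanted into mice before dosing.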",
  "key": {"[1]": {"settings": "dose: 25.0 mg/kg/injection, schedule: Q01DX009 (ip), vehicle: saline with Tween-80"}, "[2]": {"settings": "dose: 100.0 mg/kg/injection, schedule: Q01DX009 (ip), vehicle: saline with Tween-80"}},
  "note": "The list shows only some results of the screen, not a fair sample: it is rich in T/C values a quarter to a half above the control, in often repeated tests (any T/C) and in doses without a T/C. Further doses and runs are listed elsewhere. T/C gives the treated animals as a percentage of the vehicle group. Some doses have a count of surviving animals in place of a T/C: the source files T/C as zero there, which appears to mark a toxic dose or a test without result, not a measured value. Some survivor counts are full or nearly so, which does not show that the dose was tolerated: survival well below the control is almost never listed, so the zero probably covers shortened survival too. Counts of survivors are from the toxicity check (mostly the fifth day) where no day follows; animals may have died later. Schedule codes are those of the source, taken here to give the interval after Q, in days (D) or hours (H), and the number of doses after X. For survival time, the PubChem record calls one and a half times the control and up active, and a quarter to a half above the control has no call in these data; cut-offs in other NCI protocols can differ.",
  "data": [
    {"molecule": "CC1CN=C(c2ccc(NC(=O)c3ccc(C(=O)Nc4ccc(C5=NCC(C)N5)cc4)c(N)c3)cc2)N1", "note": "(stereo not drawn)", "values": [
      {"measurement": "T/C", "setting": "dose: 6.7 mg/kg/injection, schedule: Q04DX003 (ip), vehicle: saline with Tween-80", "value": "136 % of control"},
      {"measurement": "T/C", "setting": "dose: 10.0 mg/kg/injection, schedule: Q04DX003 (ip), vehicle: saline with Tween-80", "value": "145 % of control"}
    ]},
    {"molecule": "OCC1OC(n2cnc3c(SSc4ncnc5c4ncn5C4OC(CO)C(O)C4O)ncnc32)C(O)C1O", "note": "(stereo not drawn)", "values": [
      {"measurement": "survivor count", "setting": "dose: 267.0 mg/kg/injection, schedule: Q01DX010 (ip), vehicle: saline", "value": "6 of 6"},
      {"measurement": "survivor count", "setting": "dose: 400.0 mg/kg/injection, schedule: Q01DX010 (ip), vehicle: saline", "value": "6 of 6"}
    ]},
    {"molecule": "O=C(Nc1cc(Cl)cc(Cl)c1)C(Cl)Cl", "values": [
      {"measurement": "survivor count", "setting": "dose: 400.0 mg/kg/injection, schedule: Q01DX010 (ip), vehicle: carboxymethylcellulose (CMC)", "value": "5 of 6"}
    ]},
    {"molecule": "Nc1nc([Se])c2ncn(C3OC(CO)C(O)C3O)c2n1", "note": "(stereo not drawn)", "values": [
      {"measurement": "T/C", "setting": "dose: 1.0 mg/kg/injection, schedule: Q01DX009 (ip), vehicle: saline", "value": "129 % of control"},
      {"measurement": "T/C", "setting": "dose: 2.0 mg/kg/injection, schedule: Q01DX009 (ip), vehicle: saline", "value": "136 % of control"},
      {"measurement": "T/C", "setting": "dose: 4.0 mg/kg/injection, schedule: Q01DX009 (ip), vehicle: saline", "value": "125 % of control"},
      {"measurement": "T/C", "setting": "dose: 8.0 mg/kg/injection, schedule: Q01DX009 (ip), vehicle: saline", "value": "138 % of control"},
      {"measurement": "T/C", "setting": "dose: 16.0 mg/kg/injection, schedule: Q01DX009 (ip), vehicle: saline", "value": "138 % of control"},
      {"measurement": "survivor count", "setting": "dose: 64.0 mg/kg/injection, schedule: Q01DX009 (ip), vehicle: saline", "value": "5 of 6"}
    ]},
    {"molecule": "O=C1NC(=O)C2C3C=CC(C12)C1C2C(=O)NC(=O)C2C31", "note": "(stereo not drawn)", "values": [
      {"measurement": "T/C", "setting": "[1]", "value": "137 % of control"},
      {"measurement": "survivor count", "setting": "[2]", "value": "6 of 6"},
      {"measurement": "survivor count", "setting": "dose: 200.0 mg/kg/injection, schedule: Q01DX009 (ip), vehicle: saline with Tween-80", "value": "2 of 6"},
      {"measurement": "survivor count", "setting": "dose: 400.0 mg/kg/injection, schedule: Q01DX009 (ip), vehicle: saline with Tween-80", "value": "0 of 6"}
    ]},
    {"molecule": "C=CCC(CC)C(=O)Cl", "note": "(stereo not drawn)", "values": [
      {"measurement": "T/C", "setting": "dose: 100.0 mg/kg/injection, schedule: Q04DX003 (ip), vehicle: saline with Tween-80", "value": "125 % of control"},
      {"measurement": "T/C", "setting": "dose: 200.0 mg/kg/injection, schedule: Q04DX003 (ip), vehicle: saline with Tween-80", "value": "127 % of control"}
    ]},
    {"molecule": "NC(CC(=O)CCl)C(=O)O", "note": "(stereo not drawn)", "values": [
      {"measurement": "T/C", "setting": "dose: 6.25 mg/kg/injection, schedule: Q04DX003 (ip), vehicle: Klucel (hydroxypropylcellulose) (HPC)", "value": "146 % of control"},
      {"measurement": "survivor count", "setting": "dose: 50.0 mg/kg/injection, schedule: Q04DX003 (ip), vehicle: Klucel (hydroxypropylcellulose) (HPC)", "value": "6 of 6"},
      {"measurement": "survivor count", "setting": "dose: 100.0 mg/kg/injection, schedule: Q04DX003 (ip), vehicle: Klucel (hydroxypropylcellulose) (HPC)", "value": "1 of 6"}
    ]},
    {"molecule": "CCC/C=[CH]/[Hg][Cl]", "values": [
      {"measurement": "survivor count", "setting": "dose: 6.25 mg/kg/injection, schedule: Q01DX009 (ip), vehicle: other", "value": "6 of 6"},
      {"measurement": "survivor count", "setting": "dose: 12.5 mg/kg/injection, schedule: Q01DX009 (ip), vehicle: other", "value": "6 of 6"},
      {"measurement": "survivor count", "setting": "dose: 25.0 mg/kg/injection, schedule: Q01DX009 (ip), vehicle: other", "value": "6 of 6"}
    ]},
    {"molecule": "N#CC(O)c1ccccc1", "note": "(stereo not drawn)", "values": [
      {"measurement": "survivor count", "setting": "dose: 20.0 mg/kg/injection, schedule: Q01DX010 (ip), vehicle: acetone", "value": "0 of 6"}
    ]},
    {"molecule": "CC(Oc1ccccc1-c1ccccc1)C(=O)N(C)C", "note": "(stereo not drawn)", "values": [
      {"measurement": "T/C", "setting": "[1]", "value": "126 % of control"}
    ]},
    {"molecule": "[N-]=[N+]=CC(=O)OCC(N)C(=O)O", "note": "(stereo not drawn)", "values": [
      {"measurement": "survivor count", "setting": "dose: 400.0 mg/kg/injection, schedule: Q01DX009 (ip), vehicle: saline", "value": "5 of 6"}
    ]},
    {"molecule": "C(=NC(c1ccccc1)(c1ccccc1)c1ccccc1)=NC(c1ccccc1)(c1ccccc1)c1ccccc1", "values": [
      {"measurement": "survivor count", "setting": "dose: 50.0 mg/kg/injection, schedule: Q01DX009 (ip), vehicle: gum acacia", "value": "6 of 6"},
      {"measurement": "survivor count", "setting": "dose: 400.0 mg/kg/injection, schedule: Q04DX003 (ip), vehicle: gum acacia", "value": "6 of 6"}
    ]},
    {"molecule": "CC(C)C(C(=O)c1ccccc1)c1ccccc1", "note": "(stereo not drawn)", "values": [
      {"measurement": "survivor count", "setting": "[2]", "value": "6 of 6"}
    ]},
    {"molecule": "Cc1ccc(Nc2nc(N)nc(N)c2N)cc1Cl", "values": [
      {"measurement": "survivor count", "setting": "dose: 50.0 mg/kg/injection, schedule: Q01DX009 (ip), vehicle: saline with Tween-80", "value": "6 of 6"},
      {"measurement": "survivor count", "setting": "dose: 75.0 mg/kg/injection, schedule: Q01DX009 (ip), vehicle: saline with Tween-80", "value": "6 of 6"}
    ]},
    {"molecule": "Nc1nc(=S)c2[nH]c(N=Nc3ccc(S(=O)(=O)Nc4nccs4)cc3)nc2[nH]1", "values": [
      {"measurement": "T/C", "setting": "dose: 12.5 mg/kg/injection, schedule: Q01DX001 (ip), vehicle: Klucel (hydroxypropylcellulose) (HPC)", "value": "130 % of control"},
      {"measurement": "T/C", "setting": "dose: 50.0 mg/kg/injection, schedule: Q01DX001 (ip), vehicle: Klucel (hydroxypropylcellulose) (HPC)", "value": "147 % of control"}
    ]}
  ]
}
